Laboratory results published in patent US20190185564A1.
No constants are given. Whether binding was seen depends on the method and setting. Some results given as binding are weak or reduced against the parent protein; the word gives no strength.

Amino acid sequences for entries named in this document (tags omitted). Residues count along the entry.
UniProt Q8TDQ0, residues 22-200: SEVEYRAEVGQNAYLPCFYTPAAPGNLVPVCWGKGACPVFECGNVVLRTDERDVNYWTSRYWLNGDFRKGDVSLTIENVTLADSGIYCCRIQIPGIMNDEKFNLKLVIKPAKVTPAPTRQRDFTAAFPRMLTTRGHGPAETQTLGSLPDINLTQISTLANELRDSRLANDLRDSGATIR

Molecular target: Human TIM-3 coupled to phycoerythrin (human) (UniProt Q8TDQ0)
Assay: blocking assay, flow cytometry: human TIM-3-PE pre-incubated with antibody, then added to galectin-9-expressing MOLT3 cells; blocked ligand galectin-9

binding	Binder
binds	anti-TIM-3 antibody clone B10 (antibody, V domains shown) VH: QVQLQESGPGLVKASETLSLTCTVSGGSIGSSDYYWGWIRQPPGKGLEWIGSIYYSGSTYYNPSLKSRVTMSVDTPNNQFSLKLSSVTAADTAVYYCARGEHRGEFDYWGQGTLVTVSS VL: EIVLTQSPATLSFSPGERATLSCRASQSVGSYLAWYQQRPGQAPRPLIYDATNRATGIPTRFSGSGSGTDFTLTISSLEPEDFATYYCQHRRTFGRGTKLEIK
binds	anti-TIM-3 antibody clone A11 (antibody, V domains shown) VH: QVQLQQWGAGLLKPSETLSLTCAVYGGSFSGYYWSWIRQPPGKGLEWIGEINHSGSTNYNPSLKSRVTISVDTSKNQFSLKLSSVTAADTAVYYCARGYVAGFDYWGQGTLVTVSS VL: QSVVTQPPSVSAAPGQKVTISCSGSSSNIGNNYVSWYQQLPGTAPKLLIYGNNWRPSGIPDRFSGSKSGTSATLAISGLQTGDEADYYCETWDSSLSAGVFGGGTKLTVL
